# Screen size: about 340,000 compounds; about 240 (0.071%) were called active. Listed are the inconclusive results; actives and inactives stand elsewhere. Calls come from the whole dose curve.
# Target: Snurportin-1 (Homo sapiens) + GTP-binding nuclear protein Ran (Homo sapiens) + Importin subunit beta-1 (Homo sapiens) (UniProt O95149+P62826+Q14974)
# Assay: qHTS Assay for Inhibitors of RanGTP induced Rango (Ran-regulated importin-beta cargo) - Importin beta complex dissociation; note: nearly all actives have a fitted effect of over 45% in size
# Details: Biochemical FRET Rango-importin beta
# Potency is the fitted concentration of half-maximal effect.
row,Structure (SMILES),Potency
1,COc1ccc(C(=O)NCC2(N3CCOCC3)CCCCC2)cc1OC,inconclusive: 1780 nM
